Measured values reported in patent US8096419B2, “Compound” (PCI Biotech AS, priority 2001, dated 2012).

Tested on: V79 cells
Experiment: Fluorescence microscopy of intracellular localization
Type: cell-based, Chinese hamster
Settings: 1 μg/ml for 18 hours, then 1 hour sensitizer-free medium

Tetraphenyl chlorin disulfonate [TPCS2a]
intracellular localization: localize in endocytic vesicles
